Data published in PubChem BioAssay AID1347423 (Functional Genomics Laboratory (NCATS/FGL), 2020).
Screen size: about 52,000 sequences; about 210 (0.4%) were called active.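 Rule for the calls: active = gene whose silencing raises cell survival under the drug, median off-target-corrected z-score across its silencing RNAs 2 or more; inactive = the rest.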 Some of the results follow.

Experiment: Resistance to Poly (ADP-Ribose) Polymerase inhibitor: Gene Identification via Genome-wide siRNA Screen
Conditions: mouse BRCA2 R2336H ES cells, olaparib, CellTiter-Glo viability; hits give high values
Excerpt: The role of Poly (ADP-Ribose) Polymerase (PARP) proteins in DNA repair has been elegantly utilized for the synthetic lethality-based treatment of BRCA-deficient tumors by PARP inhibitors. PARP inhibitors are now being used for treatment of BRCA-deficient breast and ovarian cancers. […] While several mechanisms of drug resistance have been identified, majority of these tumors develop drug resistance due to unknown causes. To identified novel regulators of chemo-resistance in BRCA2-mutated cells, we performed a genome wide siRNA library screen. We have found ES cells expressing a hypomorphic allele of BRCA2 to be hypersensitive to PAPP inhibitors (such as olaparib). We used ES cells expressing a mutant allele of BRCA2 that has a single amino acid substitution at position 2336 (arginine to histidine, R2336H). The screen was conducted using an Ambion (Thermo) Silencer Mouse Genome siRNA collection. The library targets 17,575 mouse genes with 3 siRNAs per gene. TET2 (E130014J05Rik) was identified as a top candidate.
Transfections were performed in 384 well plates (Corning 3707). Plates were coated with 0.1% gelatin in H2O overnight at ambient temperature. Gelatin solution was aspirated (BioTek EL406) and siRNAs were printed using a Bravo VPrep liquid handler integrated within a BioCel automation platform (Agilent). Cell viability was measured using CellTiter Glo (Promega). For transfections, […] of serum free media containing Lipofectamine RNAiMax […] was added to wells containing siRNA (0.8pmol). Lipid and siRNA were allowed to complex for 45 min at ambient temperature before addition of 1000 cells in DMEM, 30% FBS to yield final transfection mixtures containing 20 nM siRNA in DMEM, 15% FBS. PARPi (olaparib, AZD2281) was added 48 h post-transfection (500 nM) and viability (CellTiter Glo, Promega) was assayed 72 h later on a PerkinElmer Envision 2104 Multilabel plate reader. Ambion Silencer Select Negative Control #2 was incorporated on all screening plates (16 wells) and the median negative control value on each plate was used for normalization. An siRNA targeting Trp53 was used as a positive control. This control yielded a median protective effect of ~1.9 fold versus negative control throughout the screen. The median absolute deviation (MAD) based z-score was calculated for each siRNA. Genes were then ranked by taking the median value for all siRNAs tested against a given gene. Scores were also adjusted for seed-based off-target effects to help deprioritize likely false positives.

| Sequence | z-score |
| --- | --- |
| GCCGAGCUUUUGUGAGUAUTT against Rhobtb2 | inactive: 0.769 |
| GCUUCAGCGUGAAAAAGCCTT against AI467484 | inactive: -0.382 |
| CCACAAAUAUGGUAGGUUCTT against 9030409E16Rik | inactive: -0.318 |
| CGGAGGAGAUAUUUAACCATT against 2810012L14Rik | inactive: 0.0161 |
| GCGAACUCCUCUUUAGGCATT against Chrng | active: -0.258 |
| GGAUUCUUGAAGCUGUUUUTT against 0610007H07Rik | inactive: 3.96 |
| GCUAAGUUCCAAGGCGACCTT against Serpinh1 | inactive: 0.41 |
| GCAGGCAUUCUGCUCUAUATT against Oxgr1 | inactive: 1.54 |
| CCUUUUACUGCUCACCGACTT against 2810453L12Rik | inactive: -0.26 |
| GGACUCCAAGAUCAUGGUCTT against Pnck | inactive: 0.263 |
| GCAAAUAGGAGCUAGCCCUTT against Met | inactive: -0.301 |
| GGAAAUAGCUGAAGACAAATT against Tacc3 | inactive: -2.25 |
| GGAAUAGGAUCUAAUCUAATT against 4930485D02Rik | inactive: -0.372 |
| CCUUCAUGCAACCAGAGGUTT against Ptp4a3 | inactive: 0.263 |
| GGAUGUGGAAACCACUAGGTT against Bst2 | inactive: 0.051 |
| CCAAUUUAAGCAGAUGAGCTT against 4930556L07Rik | inactive: 0.63 |
| CGUUUCAGAGUGUUUGUGGTT against 1110067D22Rik | inactive: 0.41 |
| GGAAAAGAUUGUCUUUGAUTT against Nup133 | inactive: -0.637 |
| GGUGGAACUCGUCAAUAGCTT against Vat1 | inactive: 0.101 |
| GCUGUGAACCUAGAGCGUGTT against 2310066I18Rik | inactive: -1.54 |
| CCGCCUUCGGGAAUUCUUUTT against Trim25 | inactive: 0.0517 |
| GGUGAAGUGUGAAACAAUGTT against Ube2m | inactive: -0.923 |
| CGAGCUUUGAAAGUUUAAUTT against Pcsk2 | inactive: 1.12 |
| GCCCAUUUUAGCUAGAAUCTT against Cd300lg | inactive: 0.548 |
| GCGGUGAUGAGAGAAACCATT against Zfp617 | inactive: 0.554 |
| CCCACCUUUGGUUCAGAACTT against 1500010J02Rik | inactive: 0.758 |

Reprinted at random: two records from the list, in no set order.

| Sequence | z-score |
| --- | --- |
| GGUGGAACUCGUCAAUAGCTT against Vat1 | inactive: 0.101 |
| GGAUGUGGAAACCACUAGGTT against Bst2 | inactive: 0.051 |

More results:

| Sequence | z-score |
| --- | --- |
| GGGAAGAAAAUGAAAGGUUTT against Cdk5rap2 | inactive: -1.59 |
| GGCAGAAGAAGUGGCCAAGTT against Elk3 | inactive: -0.927 |
| GCUACUCCCUGCAUAUUAGTT against Slamf9 | inactive: -1.34 |
| GGAGGAUGAGAUGAUGCCATT against Sez6l2 | inactive: 0.496 |
| GGAAACAACAGAAUAAAGCTT against Chrm1 | inactive: 0.785 |
| GGGAAGGGUGAAGAACAGGTT against Ifrd2 | inactive: 0.169 |
| CCUGCAUCACGUUAGUUACTT against Ankrd28 | inactive: 0.782 |
| GGACCCACAACUCCCUUUUTT against Thap7 | inactive: -0.587 |
| GGUCUUCUCCGAGUACUUUTT against Ap1m1 | inactive: 0.963 |
| GCAGUGACGACCAAAAAUCTT against Ttc12 | inactive: -0.525 |
| GUGUAUCCCAGGCUAUCACTT against V1rc27 | inactive: 0.0617 |
| GCAUGAAGAGCUAAUGCUATT against Eprs | inactive: -0.075 |
| GGGAUCUGGAUUUAAUUUGTT against Arf5 | inactive: 0.418 |
| GCCAUCUGUAGUGACCAGATT against Notch2 | inactive: 0.372 |
| GCAGCGUACAAAUCCUUCUTT against Numb | inactive: 1.11 |
| CCAAAUCGUACUGGAAGACTT against Ttr | inactive: -0.00857 |
| GGCUUCAUCAUGCUCAUUGTT against Mllt1 | inactive: 3.37 |
| GCACAGUGGAUGCAAUCAGTT against Btbd1 | inactive: 0.346 |
| CCAUAGUAGCUACCUUGAUTT against BC055107 | inactive: -0.49 |
| GCUGGAUAGCUAAAAUGAUTT against E230026N22Rik | inactive: 0.0925 |
| CCAAUUAGCCUAGGUUUGGTT against Olfr799 | inactive: -1.37 |
| GCUUAUCUAUUGAGAGAGATT against Hs3st3b | inactive: -0.325 |
| GGAACAGGAGAAUGACAUCTT against 9030221A05Rik | inactive: -0.724 |
| GGGUGAAAGCUGACUUUAATT against Rnh1 | inactive: -2 |
| GCGGAAACAAUCCAUUUAATT against Pcdhgb7 | inactive: -0.14 |
| CCAUCUCUCUAAUGAUUGATT against Txndc5 | inactive: -1.04 |
